# ± gives the half width of the 95% confidence interval. The two proteases of the assay disagree for many of these sequences.
# Legend:
# [1] = folding stability dG unfold from chymotrypsin proteolysis; higher = more stable
# Description: (§1)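 Folding stability of de novo designed mini-proteins (<80 aa, no Cys; designed by TrROS, TrMRF, ProteinMPNN and the joint model) was measured by cDNA display proteolysis with trypsin and chymotrypsin. Each protease was used at 11 concentrations in a threefold dilution series plus a no-protease condition. K50 was inferred by Bayesian fitting of sequencing counts, and dG unfold was derived against a sequence-predicted unfolded-state K50 (Tsuboyama et al. method). Sequences shown include variable-length N-terminal GS-type padding (SAGGSAGG...) inside a display construct carrying a PA tag. Rows were kept only if the AF2 dimer inter-PAE was >15, to exclude likely homo-oligomers.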
# [2] = folding stability dG unfold (combined trypsin and chymotrypsin); higher = more stable
# Description: as §1
Sequence,folding stability dG unfold [1] [kcal/mol],folding stability dG unfold [2] [kcal/mol]
SAGGSAGGSAGGTLGTVRRETEDEVTVEENPVVEPRIARTADGKLVREETERVTVTVSPPSAGGSAGGSAGG [r7_764_JUSTAS],1.346 ± 0.011,0.805 ± 0.038
SGMETKTIEKTVTVPAGDPAALEAAAAAVKEEIEKELKEKGYEVLEVKVTATATPDDTVTVTVPITVKKKSA [r9_298_JUSTAS],1.3 ± 0.043,0.607 ± 0.28
SAGGSAGGSAGGPPLRVVEVRYDPETGTLLVTVELPNGERVVARANPSDGTVEVLAVFPSAGGSAGGSAGGS [r10_1255_TrMRF],1.6 ± 0.05,1.09 ± 0.14
MKYKVKIKIETKAEITYEKTPDGTIRPRLDKGSAEFEIEAEPEELEELLKELNIPEDVIDKIEIEVFPKESS [r1_351_TrMRF],1.1 ± 0.21,0.616 ± 0.34
SAGGSAGGSAGGVLRPPGFPGAAVLLEEDPDNPDVVKLTVVDPATGEPYEFTVKRSDLTASAGGSAGGSAGG [r17_341_TrMRF],1.16 ± 0.093,0.567 ± 0.1
SAGGSAGGSAGVKVERDPNGSTRTITTTTTTTLPTEDGTLVTTETVTTTTVPLSPDVPLLSAGGSAGGSAGG [r17_480_JUSTAS],1.56 ± 0.076,1.02 ± 0.12
SAGGDVVEFDSLEDLEAALPVLRRGAELLLRLNLVFERPLPDGRPRRVPRLLFLRARLEDGELRIEPVSAGG [r13_835_TrMRF],2.74 ± 0.094,1.78 ± 0.13
SAGSAVVRDFDFEVPPGYGVLDVTVTEGPGPPVWEGTVTFQAGGAPETLTVTIPVDPATGARSVAMTAGSAG [r5_136_JUSTAS],0.267 ± 0.13,-0.235 ± 0.25
SANKNFYIIQIKWEIDGPDGRTLSFMIIVPRDDPDEFLKEAKDFIAEEFGYPIKKIEVDIHRIPPEDFPSAG [r14_104_TrROS],3.16 ± 0.07,
SAGGSAGGGAEDAPVLVLLVEAEIDPDRERHLHLKVELDGKLYDADALVFTTPDGKSVMLIVIGSAGGSAGG [r6_324_TrMRF],3.19 ± 0.068,2.71 ± 0.12
SAGGGAGTATLTVPVTFELEFFDADGRPVGPARLTLTLRLTAPVPLPPVPPPRLDLVLPDRFNPADDLSAGG [r13_508_TrMRF],3.544 ± 0.026,2.99 ± 0.087
SAGGSAGGSALKPNETATIRILTTAPDGKPYVLVVEVRVLPDGGVEVLGYKLVTLSDLEKNSAGGSAGGSAG [r3_212_TrMRF],3.74 ± 0.082,
SAGGSAIKIDPDYGTIEIYNPDNGKEIEIPIDGLPPGRKMDIEINNDKIEIKMPGGTRELPIDDIKSAGGSA [r15_864_TrROS],0.655 ± 0.068,0.194 ± 0.26
SAGGSAGGSAGDLPPGKEIEIMMSTPEWADEFADNFPNAKIKIEPMPPKPKYDPETGKGYSAGGSAGGSAGG [r17_126_TrROS],,< -1
SAGGSAGGVLVPAEAIRRAFPDFVVEVRPRRVRRVRPDPLRPGVPVFEERVVPVLDLRRREDLFSAGGSAGG [r6_659_TrMRF],1.02 ± 0.082,0.451 ± 0.077
SAGGSAGGSAGGTVETLPDGGRREVEEVTAPDGTRLVRVRYFDPEGRPVSERVVPVEELESAGGSAGGSAGG [r7_660_JUSTAS],2.067 ± 0.01,1.58 ± 0.039
SAGGSAGGSAGGETVTLTVKVKFTFTVPDPDGVEHPVEAEFPAEISLPRELATEELLEAASAGGSAGGSAGG [r7_777_TrMRF],1.59 ± 0.093,0.916 ± 0.12
SGMVTLEDIAAAPPGTPVVVTTKKQGSKNLTFIDAVVDGARSSASYPSIEEARKELEAVGYPVEFVDPAESA [r9_1021_JUSTAS],0.143 ± 0.066,-0.429 ± 0.19
SAGGSAGGSAGKKKYVIKVYFEDTGKEVEIEAESKEEALEAAKRLAEELGLKIKKVEIYPSAGGSAGGSAGG [r11_951_TrROS_Hall],3.94 ± 0.26,4.18 ± 0.38
SAGGSAGGSAGGSYRLETLPLPGGYRLVLVHLPDGTVLAVLYNADGTPVLKTFPENYPVASAGGSAGGSAGG [r7_215_TrMRF],3.221 ± 0.019,2.71 ± 0.047
SAGEATVEKLEDGYVVVFKDGSVAFLPAVPPAVPVVEIPFKDPEEGRRAVEELGADVLDIGDDSIVVAGSAG [r5_328_TrMRF],0.346 ± 0.033,
SGSLAERIAAEIRARGLELLETRVSYDPATGLTTVEMLARDPDDPATVRVEVTADPAADVVLARREEPEPSA [r9_814_JUSTAS],1.51 ± 0.026,1.05 ± 0.036

# An excerpt of these results, bar-delimited:
Sequence | folding stability dG unfold [1] [kcal/mol] | folding stability dG unfold [2] [kcal/mol]
SANKNFYIIQIKWEIDGPDGRTLSFMIIVPRDDPDEFLKEAKDFIAEEFGYPIKKIEVDIHRIPPEDFPSAG [r14_104_TrROS] | 3.16 ± 0.07 | 
SAGGSAGGGAEDAPVLVLLVEAEIDPDRERHLHLKVELDGKLYDADALVFTTPDGKSVMLIVIGSAGGSAGG [r6_324_TrMRF] | 3.19 ± 0.068 | 2.71 ± 0.12
